# Record: PubChem BioAssay AID686938 (Drosophila RNAi Screening Center, 2013)
# Aim: 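Fly genes required for calcium entry once internal stores are emptied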 (primary screen)
# Cells: Drosophila S2R+ cells
# Reagents: long dsRNA against Drosophila genes, about 0.25 µg dsRNA per well, roughly 10,000 cells
# Time to read-out: 5 days of knock-down before the calcium assay
# Conditions: thapsigargin (SERCA pump blocker) to empty calcium stores; entry signal taken 4 min after adding it
# Detection: 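Per-well fluo-4 fluorescence in two replicates, unnormalised, measured in resting cells and 4 min after store depletion by the SERCA blocker thapsigargin; ratio of the two present in few wells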
# Reading the numbers: calcium entry signal: higher = stronger calcium signal after store depletion; entry to resting ratio: higher = more calcium entry relative to resting level; resting calcium signal: higher = higher resting calcium signal
# Call rule: 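Hit if the duplicate-averaged plate z-score for entry over resting signal is under −3; wells with weak total dye signal (Fmax z < −2) or more than 5 off-targets removed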
# Meaning of the calls: active = strongly reduced calcium entry; inactive = no strong reduction
# The deposit covers about 23,000 reagents; shown is a random part of those with a known target gene and a result. Over the whole deposit, 75 (0.33%) got an active call. 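Raw plate signals without normalisation; calls rest on plate z-scores that were not deposited; ratio present for only 364 wells.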 Names joined by + are all predicted targets of the reagent. No sequences are given here. Not given: the dose of the treatment.
target gene,DRSC id,"calcium entry signal, replicate 1 (fluorescence units)","calcium entry signal, replicate 2 (fluorescence units)",entry to resting ratio,"resting calcium signal, replicate 1 (fluorescence units)","resting calcium signal, replicate 2 (fluorescence units)",Call
CG14356,DRSC14819,2.11e7,5.19e7,,1.10e7,6.67e7,inactive
CG34005,DRSC05700,1.56e7,3.54e7,,7.90e6,2.51e7,inactive
CG9030,DRSC20139,4.37e7,2.95e7,,2.21e7,1.48e7,inactive
CG43338,DRSC22055,3.16e7,4.05e7,,1.65e7,2.36e7,inactive
Hers + amn,DRSC20306,4.68e7,3.46e7,,2.29e7,1.54e7,inactive
Gr97a (Gustatory receptor 97a),DRSC13802,2.59e7,2.87e7,,1.23e7,1.40e7,inactive
Atg10 (Autophagy-related 10),DRSC06172,2.35e7,2.68e7,,1.09e7,1.19e7,inactive
Rox8,DRSC16829,3.67e7,6.11e7,,3.08e7,2.42e7,inactive
CG14743,DRSC06479,3.43e7,4.56e7,,1.77e7,1.80e7,inactive
Lam (Lamin),DRSC03359,1.72e7,1.81e7,,9.68e6,9.49e6,inactive
CG8509,DRSC20109,3.81e7,4.49e7,,1.80e7,1.94e7,inactive
Rbp4 (RNA-binding protein 4),DRSC16818,3.82e7,6.51e7,,1.78e7,6.97e7,inactive
Ddr (Discoidin domain receptor),DRSC00922,3.86e7,4.31e7,,1.97e7,2.00e7,inactive
Ddr (Discoidin domain receptor),DRSC00923,4.42e7,4.25e7,,2.22e7,2.03e7,inactive
Ddr (Discoidin domain receptor),DRSC02150,3.35e7,4.22e7,,1.68e7,1.94e7,inactive
Ddr (Discoidin domain receptor),DRSC03229,3.80e7,2.57e7,,1.86e7,1.26e7,inactive
Ddr (Discoidin domain receptor),DRSC03230,3.44e7,3.63e7,,1.82e7,1.66e7,inactive
Ddr (Discoidin domain receptor),DRSC22818,3.49e7,4.33e7,,1.72e7,2.00e7,inactive
Uros1 (Uroporphyrinogen III synthase 1),DRSC18191,3.27e7,3.30e7,,1.64e7,1.54e7,inactive
Ogg1 (8-oxoguanine DNA glycosylase),DRSC17738,2.97e7,3.23e7,,1.38e7,1.40e7,inactive

4 consecutive entries already listed, quoted:
target gene,DRSC id,"calcium entry signal, replicate 1 (fluorescence units)","calcium entry signal, replicate 2 (fluorescence units)",entry to resting ratio,"resting calcium signal, replicate 1 (fluorescence units)","resting calcium signal, replicate 2 (fluorescence units)",Call
Atg10 (Autophagy-related 10),DRSC06172,2.35e7,2.68e7,,1.09e7,1.19e7,inactive
Rox8,DRSC16829,3.67e7,6.11e7,,3.08e7,2.42e7,inactive
CG14743,DRSC06479,3.43e7,4.56e7,,1.77e7,1.80e7,inactive
Lam (Lamin),DRSC03359,1.72e7,1.81e7,,9.68e6,9.49e6,inactive

More results follow:
target gene,DRSC id,"calcium entry signal, replicate 1 (fluorescence units)","calcium entry signal, replicate 2 (fluorescence units)",entry to resting ratio,"resting calcium signal, replicate 1 (fluorescence units)","resting calcium signal, replicate 2 (fluorescence units)",Call
CG6454,DRSC16044,3.91e7,2.71e7,,1.85e7,1.39e7,inactive
His1:CG33816 + His1:CG33828 + His1:CG33819 + 21 more,DRSC21266,3.56e7,3.65e7,,1.82e7,1.70e7,inactive
sle (slender lobes),DRSC14557,3.16e7,4.13e7,,1.47e7,1.99e7,inactive
"Smyd4-1 (SET and MYND domain containing, class 4, member 1)",DRSC06785,4.24e7,2.88e7,,1.78e7,1.38e7,inactive
Grx3 (Glutaredoxin 3),DRSC02966,3.80e7,,,2.07e7,,inactive
CG15399,DRSC00413,3.80e7,5.11e7,,1.76e7,1.84e7,inactive
CG33777,DRSC08107,4.32e7,3.23e7,,2.29e7,1.56e7,inactive
Sf3a2 (Splicing factor 3a subunit 2),DRSC09801,2.81e7,2.19e7,,2.33e7,1.26e7,inactive
CG6553,DRSC07002,3.86e7,3.50e7,,1.95e7,1.53e7,inactive
Cbp53E (Calbindin 53E),DRSC07356,4.20e7,3.40e7,,1.98e7,1.74e7,inactive
CG15282,DRSC22620,3.61e7,3.66e7,,2.12e7,1.80e7,inactive
CG15282,DRSC23090,6.61e7,3.81e7,,3.19e7,1.77e7,inactive
CG3337,DRSC15478,2.67e7,2.16e7,,1.44e7,1.14e7,inactive
nAChRalpha6 (nicotinic Acetylcholine Receptor alpha6),DRSC01096,3.60e7,3.79e7,,1.76e7,1.67e7,inactive
nAChRalpha6 (nicotinic Acetylcholine Receptor alpha6),DRSC01098,3.33e7,4.53e7,,1.56e7,1.76e7,inactive
nAChRalpha6 (nicotinic Acetylcholine Receptor alpha6),DRSC02738,5.70e7,,,2.63e7,,inactive
CG32591,DRSC19063,3.33e7,4.35e7,,1.73e7,1.94e7,inactive
mAcon1 (Mitochondrial aconitase 1),DRSC01853,3.61e7,5.24e7,,1.67e7,1.95e7,inactive
CG4572,DRSC15603,3.04e7,2.91e7,,1.40e7,1.25e7,inactive
Fer3 (48 related 3),DRSC16133,2.83e7,3.17e7,,1.34e7,1.48e7,inactive
Xrcc2 (X-ray repair cross complementing 2),DRSC19984,3.56e7,3.02e7,,1.86e7,1.59e7,inactive
CG34282,DRSC16298,3.43e7,4.15e7,,6.28e7,1.78e7,inactive
CG32201,DRSC22452,3.09e7,2.86e7,,1.87e7,1.39e7,inactive
ValRS (Valyl-tRNA synthetase),DRSC06864,3.68e7,2.70e7,,1.71e7,1.37e7,inactive
pb (proboscipedia),DRSC12409,2.23e7,4.38e7,,1.14e7,1.94e7,inactive
pb (proboscipedia),DRSC12629,5.39e7,3.93e7,,2.92e7,2.10e7,inactive
Cyp4d2 (Cytochrome P450 4d2),DRSC18458,2.88e7,3.45e7,,1.45e7,1.66e7,inactive
rho-5 (rhomboid-5),DRSC02847,3.38e7,3.93e7,,1.69e7,1.93e7,inactive
CG13114,DRSC02212,3.99e7,6.74e7,,1.98e7,2.77e7,inactive
Best4 (Bestrophin 4),DRSC10792,3.27e7,4.16e7,,1.90e7,1.64e7,inactive
didum (dilute class unconventional myosin),DRSC07603,3.67e7,3.79e7,,1.75e7,1.61e7,inactive
Rab4,DRSC07524,3.19e7,3.15e7,,1.51e7,1.56e7,inactive
CG10472,DRSC09730,3.46e7,2.35e7,,2.33e7,1.06e7,inactive
Or2a (Odorant receptor 2a),DRSC18690,3.81e7,5.82e7,2.2,1.75e7,2.45e7,inactive
glec (gliolectin),DRSC16958,4.07e7,3.36e7,,6.47e7,1.68e7,inactive
CG13894,DRSC08364,4.39e7,3.97e7,,2.34e7,2.07e7,inactive
CG13894,DRSC23205,3.66e7,3.19e7,,1.74e7,1.55e7,inactive
CG17145,DRSC10247,2.08e7,3.65e7,,1.04e7,1.61e7,inactive
